# According to article PMC1810427:
# Chains of the proteins cited; added tags and fusions are not shown. Lines headed by an entry give the natural chain unless they say otherwise; changes in a name come on top.
# UniProt P38919: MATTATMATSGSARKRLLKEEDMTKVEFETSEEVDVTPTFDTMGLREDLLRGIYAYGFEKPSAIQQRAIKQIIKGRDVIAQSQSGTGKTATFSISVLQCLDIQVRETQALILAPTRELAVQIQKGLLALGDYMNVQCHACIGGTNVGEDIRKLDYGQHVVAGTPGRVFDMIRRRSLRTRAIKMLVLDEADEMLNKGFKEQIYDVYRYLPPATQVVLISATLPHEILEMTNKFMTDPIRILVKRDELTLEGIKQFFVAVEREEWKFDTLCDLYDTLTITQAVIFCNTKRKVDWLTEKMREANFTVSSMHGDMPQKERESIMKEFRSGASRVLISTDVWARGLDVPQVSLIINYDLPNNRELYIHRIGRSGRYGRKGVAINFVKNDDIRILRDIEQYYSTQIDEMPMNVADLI
# Experiments:
# eIF4AIII (human) = eIF4AIII (human) (UniProt P38919); experiment: SPR; settings: 5 mM Mg2+, SPR (Biacore 2000): 40 mM Tris-HCl pH 7.8, 50 mM NaCl, 4 mM DTT, 5 mM MgCl2, 0.002% Tween 20, 30 ul/min, 10-160 nM protein, temperature not stated, recombinant protein, protein details: N-terminal His6, label: 5' biotin
# eIF4AIII + MLN51 SELOR = experiment: SPR; settings: 5 mM Mg2+, SPR (Biacore 2000): 40 mM Tris-HCl pH 7.8, 50 mM NaCl, 4 mM DTT, 5 mM MgCl2, 0.002% Tween 20, 30 ul/min, 10-160 nM protein, temperature not stated, recombinant protein, protein details: N-terminal His6,GST cleaved off (PreScission), label: 5' biotin
sequence,measurement,setting,value
AUGUCAUUCGAGUACAGUCUGUUCAGCUAGUCUCC [35-mer ssRNA],binding result,eIF4AIII (human); AMPPNP,no binding
same,binding result,eIF4AIII (human); ATP,no binding
same,binding result,eIF4AIII (human); no nucleotide,no binding
same,Kd,eIF4AIII + MLN51 SELOR; ATP,500 nM
same,Kd,eIF4AIII + MLN51 SELOR; no nucleotide,1000 nM

# For at least one entry, the source does not settle the construct or the ends of the probe. For some assays here: No signal at the amounts used counts as a negative.
